PubChem BioAssay AID1259405 | NCATS – 2018
The whole screen tested about 50,000 reagents; this is a part drawn at random. Of all reagents, about 4,000 (8%) got an active call. 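Mouse siRNA library applied to hamster cells; one well for each siRNA.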 Reagents against one gene are numbered here. Reagent sequences are not shown.

Test: 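Knock-downs that lift recombinant protein yield in hamster ovary cells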 (primary screen)
Cells: Chinese hamster CHO-K1 ovary cells with stable secreted eGFP expression
Reagent: single siRNA against mouse genes, 0.8 pmol siRNA per well (2 µl of 400 nM stock)
Time to read-out: 3 days
Detection: 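Per-well intracellular GFP measured by laser scanning cytometry, plus viability from ATP luminescence, each relative to plate median of non-targeting control wells, in %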
Reading the numbers: GFP, % of control: higher = more GFP per well, higher productivity; viability (ATP), % of control: higher = more viable cells (more ATP)
Active means: 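a knock-down is called active if GFP reaches 120% or more of non-targeting control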

no.	target gene	reagent	GFP, % of control	viability (ATP), % of control	activity call
1	Pramel4	1	101	88.3	inactive
2	Pramel4	2	97.9	77.5	inactive
3	Pramel4	3	89.1	93.9	inactive
4	Zfp941	1	46.8	63.4	inactive
5	Zfp941	2	49.5	58.1	inactive
6	Zfp941	3	113	114	inactive
7	Stim2	1	67.4	72.2	inactive
8	Stim2	2	65.2	49.5	inactive
9	Stim2	3	65	65.1	inactive
10	Rnf34	1	68	61.7	inactive
11	Rnf34	2	77.5	67.1	inactive
12	Rnf34	3	129	104	active
13	Rxra	1	29.3	37.6	inactive
14	Rxra	2	97.6	78	inactive
15	Rxra	3	81.8	86.1	inactive
16	Mia	1	48.4	35	inactive
17	Mia	2	52.8	43.5	inactive
18	Mia	3	69.5	80.2	inactive
19	Or2r11	1	98.8	105	inactive
20	Or2r11	2	63.8	45.7	inactive
21	Or2r11	3	73.1	66.1	inactive
22	Pld3	1	61.3	83.6	inactive
23	Pld3	2	90.9	92.9	inactive
24	Pld3	3	44.4	60.2	inactive
25	Septin10	1	57.3	67.3	inactive
26	Septin10	2	144	112	active
27	Psg23	1	79.7	45.6	inactive
28	Psg23	2	79.1	72.5	inactive
29	Psg23	3	82.9	89.3	inactive
30	Nlrp1a	1	40.8	60.8	inactive
31	Nlrp1a	2	86.9	87.2	inactive
32	Nlrp1a	3	108	57.5	inactive
33	Or5p1	1	127	72.6	active
34	Or5p1	2	110	77.5	inactive
35	Or5p1	3	63.6	72.3	inactive
36	Clxn	1	64.1	61.8	inactive
37	Clxn	2	55.9	47	inactive
38	Clxn	3	85.7	78.2	inactive
39	Mmp21	1	67.7	92.4	inactive
40	Mmp21	2	41.9	58.7	inactive
41	Fbxo44	1	61	64.3	inactive
42	Fbxo44	2	90.2	70.2	inactive
43	Fbxo44	3	83.5	68.2	inactive
44	Keg1	1	58.6	84.1	inactive
45	Keg1	2	61.2	76	inactive
46	Keg1	3	56.8	76.9	inactive
47	Cox8b	1	79.2	60.1	inactive
48	Cox8b	2	88.7	82.5	inactive
49	Cox8b	3	58.5	70.1	inactive
50	Cdc5l	1	55	74	inactive
51	Cdc5l	2	97.3	88.3	inactive
52	Ccdc7b	1	69.9	97.7	inactive
53	Ccdc7b	2	54.5	41.6	inactive
54	Ccdc7b	3	45.3	83	inactive
55	Sbk1	1	72.5	72.6	inactive
56	Sbk1	2	89.5	73.5	inactive
57	Sbk1	3	88.4	87.1	inactive
58	Cd63	1	69.3	45.7	inactive
59	Cd63	2	54	67	inactive
60	Cd63	3	68.6	67.5	inactive
61	Rundc1	1	76	77.4	inactive
62	Rundc1	2	99.1	67.6	inactive
63	Rundc1	3	90.6	82.5	inactive
64	P2rx2	1	114	72.8	inactive
65	P2rx2	2	121	105	active
66	P2rx2	3	50.5	45.3	inactive
67	Cltrn	1	115	93.5	inactive
68	Cltrn	2	75.7	95	inactive
69	Cltrn	3	95.6	95.6	inactive

An excerpt from above, reduced to “GFP, % of control”.
Mmp21 #2 = 41.9
Fbxo44 #1 = 61
Fbxo44 #2 = 90.2
Fbxo44 #3 = 83.5
Keg1 #1 = 58.6
Keg1 #2 = 61.2
Keg1 #3 = 56.8
Cox8b #1 = 79.2
Cox8b #2 = 88.7
Cox8b #3 = 58.5
Cdc5l #1 = 55
Cdc5l #2 = 97.3
Ccdc7b #1 = 69.9
Ccdc7b #2 = 54.5
Ccdc7b #3 = 45.3
Sbk1 #1 = 72.5

Continued.
no.	target gene	reagent	GFP, % of control	viability (ATP), % of control	activity call
70	Prdx3	1	29.4	47.1	inactive
71	Prdx3	2	63.4	65.4	inactive
72	Prdx3	3	108	81.9	inactive
73	Snf8	1	69.4	72.6	inactive
74	Snf8	2	81.3	92.6	inactive
75	Snf8	3	101	97.8	inactive
76	Msmo1	1	62.9	57.4	inactive
77	Msmo1	2	66	78.3	inactive
78	Msmo1	3	17	12.3	inactive
79	Gm11733	1	81.6	82.1	inactive
80	Gm11733	2	86.7	48.1	inactive
81	Gm11733	3	96.8	95	inactive
82	Ndufa6	1	104	143	inactive
83	Ndufa6	2	93.2	94.8	inactive
84	Angptl4	1	61.9	72.7	inactive
85	Angptl4	2	38.2	61.9	inactive
86	Or4c127	1	49.7	49.8	inactive
87	Or4c127	2	184	65.7	active
88	Or4c127	3	83.9	85.6	inactive
89	Reg2	1	52.6	66.9	inactive
90	Reg2	2	0.859	2.91	inactive
91	Reg2	3	59.1	60.7	inactive
92	Or3a4	1	106	43.9	inactive
93	Or3a4	2	93.3	97.2	inactive
94	Or3a4	3	40.1	41.8	inactive
95	Slc26a4	1	125	72	active
96	Slc26a4	2	125	115	active
97	Slc26a4	3	86.7	77.7	inactive
98	Rpf1	1	59.5	61.7	inactive
99	Rpf1	2	78	60.4	inactive
100	Rpf1	3	151	82.2	active
101	Or4a81	1	71.6	43.2	inactive
102	Or4a81	2	48.2	60	inactive
103	Or4a81	3	93.8	82.7	inactive
104	Dmwd	1	75.1	83.2	inactive
105	Dmwd	2	63.3	74.7	inactive
106	Dmwd	3	77.8	79.7	inactive
107	Cfap43	1	72.6	98	inactive
108	Cfap43	2	65.9	89.1	inactive
109	Cfap43	3	92.5	112	inactive
